Experimental data from patent US20070184503A1.
No constants are given. Whether binding was seen depends on the method and setting. Some entries that bind do so weakly or less than the wild type.

Sequences of proteins named here, by UniProt entry; tags and fusion partners are left off. Residues count along the entry.
UniProt P00004, residues 2-105: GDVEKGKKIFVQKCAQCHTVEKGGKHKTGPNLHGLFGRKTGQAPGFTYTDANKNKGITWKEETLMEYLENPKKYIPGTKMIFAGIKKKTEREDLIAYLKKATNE
UniProt P02769, residues 25-607: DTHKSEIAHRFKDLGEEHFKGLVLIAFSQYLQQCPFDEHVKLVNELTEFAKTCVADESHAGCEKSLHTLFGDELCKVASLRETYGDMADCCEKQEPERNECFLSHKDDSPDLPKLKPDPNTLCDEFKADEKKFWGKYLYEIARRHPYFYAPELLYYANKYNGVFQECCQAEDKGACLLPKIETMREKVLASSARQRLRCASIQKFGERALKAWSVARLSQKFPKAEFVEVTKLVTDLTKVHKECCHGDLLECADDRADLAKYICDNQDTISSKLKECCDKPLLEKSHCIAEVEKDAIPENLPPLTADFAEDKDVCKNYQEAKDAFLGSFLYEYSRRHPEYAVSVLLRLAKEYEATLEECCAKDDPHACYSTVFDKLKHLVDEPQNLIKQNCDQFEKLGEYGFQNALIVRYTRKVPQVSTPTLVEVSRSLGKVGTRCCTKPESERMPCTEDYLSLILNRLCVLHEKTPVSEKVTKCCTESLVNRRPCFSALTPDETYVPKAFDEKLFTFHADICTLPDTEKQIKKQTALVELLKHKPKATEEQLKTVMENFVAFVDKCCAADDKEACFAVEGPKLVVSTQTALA

Columns and labels:
[1] = biological target: horse Cytochrome c (Cyt c) (horse) (UniProt P00004); experiment: Adsorption on horse Cyt c-Affi-Gel 10, acid elution, SDS-PAGE
[2] = biological target: horse Cytochrome c (Cyt c) (horse) (UniProt P00004); experiment: Adsorption of the human serum fraction on horse Cyt c-Affi-Gel 10, SDS-PAGE, MALDI-TOF MS

binding [1] | binding [2] | Molecule
binds |  | bovine serum albumin (BSA) (from UniProt P02769 25-607)
 | binds | hemopexin (protein, human, UniProt P02790 24-462, looked up) TPLPPTSAHGNVAEGETKPDPDVTERCSDGWSFDATTLDDNGTMLFFKGEFVWKSHKWDRELISERWKNFPSPVDAAFRQGHNSVFLIKGDKVWVYPPEKKEKGYPKLLQDEFPGIPSPLDAAVECHRGECQAEGVLFFQGDREWFWDLATGTMKERSWPAVGNCSSALRWLGRYYCFQGNQFLRFDPVRGEVPPRYPRDVRDYFMPCPGRGHGHRNGTGHGNSTHHGPEYMRCSPHLVLSALTSDNHGATYAFSGTHYWRLDTSRDGWHSWPIAHQWPQGPSAVDAAFSWEEKLYLVQGTQVYVFLTKGGYTLVSGYPKRLEKEVGTPHGIILDSVDAAFICPGSSRLHIMAGRRLWWLDLKSGAQATWTELPWPHEKVDGALCMEKSLGPNSCSANGPGLYLIHGPNLYCYSDVEKLNAAKALPQPQNVTSLLGCTH
